From PubChem BioAssay AID1347421 (Sanford-Burnham Center for Chemical Genomics, 2020)
Whole data set: some 1,500 compounds, median “activity” near 2, cut for the lowest 2% near -18. Some of the results follow. The source made the active and inactive calls.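 The calls were made as follows: active = inhibition of at least 40% at 10 µM; inconclusive = no clear call, values can overlap the other calls; inactive = the rest.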

The chains behind the UniProt entries cited, without tags or fusion partners. Where a name states a change or a piece, a line headed by the entry shows the natural chain unless it says otherwise.
UniProt O00391: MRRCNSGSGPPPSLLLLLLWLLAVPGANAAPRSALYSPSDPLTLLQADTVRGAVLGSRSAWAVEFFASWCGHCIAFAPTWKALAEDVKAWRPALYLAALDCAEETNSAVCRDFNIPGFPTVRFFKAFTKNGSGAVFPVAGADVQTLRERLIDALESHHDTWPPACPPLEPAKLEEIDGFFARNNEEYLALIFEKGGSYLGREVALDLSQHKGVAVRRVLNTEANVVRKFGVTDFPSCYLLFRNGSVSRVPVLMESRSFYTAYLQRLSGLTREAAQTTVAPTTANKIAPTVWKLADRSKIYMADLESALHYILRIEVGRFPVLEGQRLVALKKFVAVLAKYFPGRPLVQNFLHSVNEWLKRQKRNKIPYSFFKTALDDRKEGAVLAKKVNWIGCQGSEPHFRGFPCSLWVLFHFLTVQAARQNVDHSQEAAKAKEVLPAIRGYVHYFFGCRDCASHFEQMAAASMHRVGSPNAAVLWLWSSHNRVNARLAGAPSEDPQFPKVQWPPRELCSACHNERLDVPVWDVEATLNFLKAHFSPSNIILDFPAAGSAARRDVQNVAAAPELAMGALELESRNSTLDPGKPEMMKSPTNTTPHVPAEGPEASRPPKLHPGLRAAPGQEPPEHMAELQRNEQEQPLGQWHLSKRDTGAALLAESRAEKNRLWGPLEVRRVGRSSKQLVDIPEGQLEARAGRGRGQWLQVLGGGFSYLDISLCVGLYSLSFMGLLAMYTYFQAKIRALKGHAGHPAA

biological target: Sulfhydryl oxidase 1 (Homo sapiens) (UniProt O00391); experiment: QSOX1 enzyme inhibitors, confirmation, biochemical, ROS-Glo luminescence, single concentration (AID 1347421); conditions: recombinant hQSOX1, RNase A substrate, ROS-Glo H2O2 luminescence; at 10 µM;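 also: 0% = DMSO wells with enzyme and 100% = wells lacking QSOX1 enzyme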

Row | SMILES | activity
1 | CN(C)CCC1CN(C(=O)CSc2ccccc2)CCO1 (centres undefined) | 4.2%
2 | COc1cc(-c2nc(CN(CCO)Cc3cccs3)c(C)o2)cc2c1OCO2 | 9.2%
3 | COc1ccccc1C(=O)C1CCCN(Cc2cccc(OCCO)c2)C1 (centres undefined) | inactive: -3.3%
4 | CCCCOc1ccccc1C(=O)Nc1ccccc1C(N)=O | 2.2%
5 | Cc1noc(C)c1CC(=O)NCc1cccnc1-n1cnc2ccccc21 | 19.8%
6 | COCCN(CC1CCN(Cc2ccccc2F)CC1)C(=O)CCn1nccc1C | inactive: -3.3%
7 | CC(C)Oc1cccc(C(=O)N2CC(C)OC(C)C2)c1 (centres undefined) | 0.9%
8 | COc1ccccc1C1CCCN1C(=O)Cn1ncc(N2CCNCC2)cc1=O (centres undefined) | 2.6%
9 | CCN(C)C(=O)c1cc(-c2cnn(C(C)C)c2)nc2cc(Cl)ccc12 | 0.7%
10 | c1csc(CNc2nc3nonc3nc2N2CCCC2c2nccs2)c1 (centres undefined) | 1.6%
11 | COC(=O)c1ccc(-c2nc(CN(C)C(C)c3nc(C)cs3)c(C)o2)cc1 (centres undefined) | 4.2%
12 | CCn1ncc(CNC(C)c2cnn(-c3ccccc3)c2C)c1C (centres undefined) | inactive: -2.3%
13 | Cc1nnc(SCC(=O)NC23CC4CC(CC(C4)C2)C3)s1 | inactive: -16.4%
14 | O=C(c1cnccn1)N1CCc2onc(-c3ccc(F)c(F)c3)c2C1 | inactive: -0.4%
15 | O=C(CCc1cnccn1)NC1CCCN(C2CCCCCC2)C1 (centres undefined) | 5.1%
16 | CN(CCOc1ccccc1)Cc1nc(-c2ccccn2)no1 | 3.2%
17 | CC(C)(C)NC(=O)c1ccccc1NC(=O)c1cccnc1 | 0.6%
18 | CCN1CCCC1CNC(=O)CCC1CCN(C(=O)CCN2CCCCO2)CC1 (centres undefined) | inactive: -7.1%
19 | CC1CCN(Cc2nnnn2CC(=O)NCCCOc2cccnc2)CC1 | inactive: -3%
20 | COCc1ccc(CN2CCC(CCC(=O)Nc3ccc(OC)cc3OC)CC2)o1 | 7.4%
21 | CN(CCc1ccccn1)[C@@H]1CCN(Cc2ccc(C#CCO)s2)C[C@H]1O | 4.2%
22 | Cc1ccc(C)c(NC(=O)N2CCN(c3ccc(N4CCCCC4)nn3)CC2)c1 | inactive: -2.6%

Already shown: entries from further up.
Row | SMILES | activity
4 | CCCCOc1ccccc1C(=O)Nc1ccccc1C(N)=O | 2.2%
5 | Cc1noc(C)c1CC(=O)NCc1cccnc1-n1cnc2ccccc21 | 19.8%
6 | COCCN(CC1CCN(Cc2ccccc2F)CC1)C(=O)CCn1nccc1C | inactive: -3.3%

Next part

Row | SMILES | activity
23 | O=C(NC(=O)N1CCCC1)c1ccc(Cl)cc1 | inactive: -2.8%
24 | COc1cnc(N2CC(N3CCOCC3)C2)nc1-c1ccnn1C | 9.4%
25 | CC(C)CCCC1CN(C(=O)c2ccc(N3CCCC3=O)cc2)CCO1 (centres undefined) | 7.7%
26 | C#CCN(CC=C)C(=O)CCc1nnc(Cc2cccc(C)c2)o1 | 10.7%
27 | COc1ccc(CNCCN2CCCC2)cc1OCC(O)CN(C)C(C)C (centres undefined) | 4.7%
28 | CC(=O)N1CCN(c2ncccc2CNCc2ccccc2-c2ccco2)CC1 | inactive: -0.1%
29 | COCC(=O)N1CCC(Oc2ccc(C(=O)NCC3CCOCC3)cc2)CC1 | 8%
30 | OCC1CCN(C2CCCN(Cc3cccc(OC4CCCC4)c3)C2)CC1 (centres undefined) | 7%
31 | CC(C)Oc1ccc(NC(=O)CCN2C(=O)c3ccccc3C2=O)cc1 | 0.6%
32 | Fc1ccc(C2(c3noc(-c4cn5ccsc5n4)n3)CCOC2)cc1 (centres undefined) | 0.2%
33 | C=CCNC(=O)N1CCC2(CCCN(Cc3cccc(C)c3)C2=O)C1 (centres undefined) | 4.7%
34 | COc1ccc2oc3nc(=O)c4ccccc4c-3cc2c1 | inactive: -123%
35 | CCN(CC)CCN(C)Cc1nc(-c2ccc(C(F)(F)F)cc2)no1 | 3.8%
36 | CN(CC(O)COc1ccccc1CNCCc1cnc[nH]1)C1CCCCC1 (centres undefined) | 6.7%
37 | COC(=O)CN(C)Cc1ccc(OC)c(OCC(O)CN2CCN(C)CC2)c1 (centres undefined) | inactive: -9.1%
38 | Cc1ccccc1CCC1CCCN(Cc2nc[nH]c2C)C1 (centres undefined) | inactive: -0.6%
39 | COc1ccc(CNCc2cc(C)no2)cc1OCC(O)CN1CCCC1 (centres undefined) | 5.2%
40 | COCC1CCN(Cc2ccc(OC)cc2OCC(O)CN2CCN(C)CC2)CC1 (centres undefined) | inactive: -0.7%
41 | O=C1N(Cc2ccccc2F)CCCC12CCN(Cc1ncc[nH]1)C2 (centres undefined) | 7%
42 | Cn1nc2c(c1NC(=O)Cn1ncc3cccnc31)CCC2 | 4.2%
43 | Cc1nc2cc(C(=O)NC3CCCN(c4ncccn4)C3)ccc2s1 (centres undefined) | 6.6%
44 | Clc1ccc(Cn2nnc(-c3ccncc3)n2)cc1Cl | 9%

Row | SMILES | activity
45 | CCCCS(=O)(=O)N1CCN(c2ccc(C)cc2)C(C)C1 (centres undefined) | 6.6%
46 | Cc1nc(C)c(CN2CCOC(CC3CCCCC3)C2)nc1C (centres undefined) | 4.5%
47 | O=C(c1ccsc1)N1CCC2(CCCN(CCC3CCCCC3)C2=O)C1 (centres undefined) | inactive: -4.3%
48 | CCOc1ccc2nc(CN3CCN(C4CCCCC4)C(CCO)C3)ccc2c1 (centres undefined) | 4.2%
49 | CCCC(C)c1n[nH]c2c1CN(C(=O)CCn1c(=O)[nH]c3ccccc31)CC2 (centres undefined) | 6.2%
50 | COC(=O)c1ccc(N2C[C@H]3OC(=O)N(CCc4ccccn4)[C@H]3C2)nc1 | 6%
51 | O=c1cc(N2CCNCC2)cnn1CCOCc1ccccc1 | 5.2%
52 | COc1cccc(CCNC(=O)CCc2nnc(-c3ccc4c(c3)OCO4)o2)c1 | 2.6%
53 | CN(C)c1ncc(CN2CCc3onc(-c4ccccc4F)c3C2)s1 | inactive: -3.9%
54 | CCN1CCCC1CN(CC1CCN(CCOC)CC1)C(=O)CCc1scnc1C (centres undefined) | inactive: -2.1%
55 | CC(C)c1cc(C(=O)N2CCCC(CO)(CCc3ccccc3)C2)on1 (centres undefined) | 3.2%
56 | Cc1oc(-c2cccs2)nc1CN(C)Cc1ccc2nonc2c1 | inactive: -5.9%
57 | COc1cccc(OC)c1C(=O)NC1CC2CCC1C2 (centres undefined) | inactive: -9.8%
58 | O=C(CN1CC(c2ccccc2)CC1=O)N1CCC(N2CCOCC2)CC1 (centres undefined) | 0.3%
59 | CCn1cc(CN2CCCC(N(C)CCc3ccc(OC)c(OC)c3)C2)cn1 (centres undefined) | 3.9%
60 | OCc1ccc(OCCOc2cccc3cccnc23)cc1 | 17.5%
61 | O=c1c2c3c(sc2ncn1Cc1nn[nH]n1)CCC3 | 2.7%
62 | Cc1ccc(-c2n[nH]c(-c3ccncc3)n2)cc1 | 8.8%
63 | COCCCNc1ccc(C(F)(F)F)cn1 | 3.7%
64 | Clc1cccc(N2CCN(C3CCCN(CC4CC4)C3)CC2)c1 (centres undefined) | 3.7%
65 | O=C(CCC1CCCN(C(=O)c2ccc[n+]([O-])c2)C1)NCc1ccc(F)c(F)c1 (centres undefined) | 2.4%
66 | COc1cccc(CNC2CC(=O)N(CCc3ccc(F)cc3)C2)c1 (centres undefined) | 0.1%

Row | SMILES | activity
67 | O=C(NCc1ccccc1)N1CCN(CCO)CC1 | 2.5%
68 | COc1ccc(CCN2CC(NC(=O)c3scnc3C)CC2=O)cc1 (centres undefined) | inactive: -3.6%
69 | Cn1cc(CCNCc2ccccc2OCC(O)CN2CCSCC2)cn1 (centres undefined) | 2.1%
70 | CC1CCc2c(sc3nc(SCC(=O)N4CCOCC4)[nH]c(=O)c23)C1 (centres undefined) | inactive: -16.6%
71 | COc1ccc(S(=O)(=O)N2CCCC2)cc1N(C)S(C)(=O)=O | inactive: -11%
72 | CN(C)CC(=O)NC1CC(=O)N(Cc2ccccc2C(F)(F)F)C1 (centres undefined) | 1%
73 | COc1cc2c(cc1OC)CN(C1CCCN(C(=O)CSc3nncn3C)C1)CC2 (centres undefined) | 5.4%
74 | COc1cc(C(=O)Nc2ccc(N3CCN(C)CC3)c(Cl)c2)cc(OC)c1OC | inactive: -12.8%
75 | CC(C)OCCNC(=O)c1cc(COc2cccc3cccnc23)on1 | 2.2%
76 | CS(=O)(=O)c1ncc(CO)n1Cc1ccccc1 | inactive: -4.5%
77 | O=C(NCC(=O)N1CCN(c2ccccc2)CC1)c1cccs1 | inactive: -14%
78 | CN(CCc1ccccn1)c1ncccc1CNC1CSCCSC1 | inactive: -4%
79 | CN(Cc1cccc(-n2cccn2)c1)CC1(O)CCCN(CC2CC2)C1=O (centres undefined) | 4%
80 | CC(C)CCn1c(CN(C)Cc2ccncn2)cnc1S(=O)(=O)C(C)C | 4%
81 | COCc1ccc(CN2CCCC(Nc3ccc(F)c(F)c3)C2)o1 (centres undefined) | inactive: -2.5%
82 | NCc1ccccc1SC1=[C+]C=C[C+]=C1CN1CCOCC1 | inactive: -11.3%
83 | CCCSc1ncc(Cl)c(C(=O)NCc2ccccc2)n1 | 2.8%
84 | Cc1cc(S(=O)(=O)NC2CC(=O)N(CC(C)(C)C)C2)c(C)s1 (centres undefined) | 9.9%
85 | CC(=O)N1CCN(Cc2cccc(OCC(O)CN(C)C3CCCCC3)c2)CC1 (centres undefined) | 7.3%
86 | O=C(Nc1cc(Cl)ccc1Cl)N1CCN(C(=O)C2CCCO2)CC1 (centres undefined) | inactive: -2.6%
87 | CCn1ccnc1CNC(=O)CC1C(=O)NCCN1CCCc1ccccc1 (centres undefined) | 5.2%
88 | Cc1n[nH]c(C)c1CCCN(C)CC1(c2cccc(F)c2)CCOC1 (centres undefined) | 7.1%

Reprinted at random: 3 compounds from above.
Row | SMILES | activity
71 | COc1ccc(S(=O)(=O)N2CCCC2)cc1N(C)S(C)(=O)=O | inactive: -11%
75 | CC(C)OCCNC(=O)c1cc(COc2cccc3cccnc23)on1 | 2.2%
87 | CCn1ccnc1CNC(=O)CC1C(=O)NCCN1CCCc1ccccc1 (centres undefined) | 5.2%

The list continues.

Row | SMILES | activity
89 | COc1cc(CN(C)C)ccc1OCC(O)CN(C)C1CCCCC1 (centres undefined) | inactive: -3.4%
90 | c1ccc(CC2CN(Cc3cnc(N4CCCC4)s3)CCO2)cc1 (centres undefined) | 5.1%
91 | Cc1nc(NC(=O)N2CCCC2Cc2cccnc2)nn1C(C)C (centres undefined) | 5.1%
92 | O=C1CCCN1CCCNCc1ccccc1OCC(O)CN1CCCCC1 (centres undefined) | 8.7%
93 | O=C(Nc1ccc(S(=O)(=O)N2CCCCCC2)cc1)N1CCCCC1 | inactive: -15.7%
94 | CC(Cc1cnccn1)NC(=O)CCc1nnc(CCC2CCCCC2)o1 (centres undefined) | inactive: -3.2%
95 | CSc1ncc(CN2CCCC(C(=O)c3cccc(OC(C)C)c3)C2)cn1 (centres undefined) | 8.6%
96 | O=C1CC(C(=O)N2CCC(CO)(Cc3ccccc3)CC2)CN1Cc1ccncc1 (centres undefined) | inactive: -2%
97 | Cn1ncc(N2CCN(C(=O)NC3CCCCCC3)CC2)cc1=O | 3%
98 | O=C(c1ccc(-c2ccccc2)c(F)c1)C1CCCN(C(=O)CCc2cnccn2)C1 (centres undefined) | 9.5%
99 | COC(=O)c1ccccc1NC(=O)C1CCCN(S(C)(=O)=O)C1 (centres undefined) | 0.4%
100 | O=C1CCC(C(=O)N2CCN(CC3CCCC3)CC2)CN1Cc1ccccn1 (centres undefined) | inactive: -1.9%
101 | CCN1CCN(CC(O)COc2cccc(CN(CC)Cc3ccncc3)c2)CC1 (centres undefined) | 5.2%
102 | CC(C)(C)NC(=O)COc1cc(N2CCOCC2)c2ccccc2c1Cl | inactive: -9.5%
103 | Cn1cnc2cc(NC(=O)C3CCCCC3)ccc21 | 5%
104 | CCOC(=O)c1cccc(CSc2n[nH]c(N)n2)c1 | inactive: -1.9%
105 | O=C1CCCN1CCCC(=O)N1CCc2onc(-c3ccccc3F)c2C1 | 3.6%
106 | O=C(CCC(F)(F)F)N1CCOC(Cc2cccc3ccccc23)C1 (centres undefined) | inactive: -1.9%
107 | Nc1ncnc(N2CCCc3ccccc32)n1 | inactive: -0.4%
108 | CN(C)CCN(CC1CCCN(Cc2ccccc2F)C1)C(=O)CCn1cccn1 (centres undefined) | 8.6%
109 | COc1cc(CNCc2nccn2C)ccc1OCC(O)CN1CCSCC1 (centres undefined) | 1.1%
